In the supplement of paper PMC10849652:
This is one part of the list.

Sequences of proteins named here, by UniProt entry; tags and fusion partners are left off. A change or cut given only in a name is not applied to a line headed by its entry.
UniProt Q13137: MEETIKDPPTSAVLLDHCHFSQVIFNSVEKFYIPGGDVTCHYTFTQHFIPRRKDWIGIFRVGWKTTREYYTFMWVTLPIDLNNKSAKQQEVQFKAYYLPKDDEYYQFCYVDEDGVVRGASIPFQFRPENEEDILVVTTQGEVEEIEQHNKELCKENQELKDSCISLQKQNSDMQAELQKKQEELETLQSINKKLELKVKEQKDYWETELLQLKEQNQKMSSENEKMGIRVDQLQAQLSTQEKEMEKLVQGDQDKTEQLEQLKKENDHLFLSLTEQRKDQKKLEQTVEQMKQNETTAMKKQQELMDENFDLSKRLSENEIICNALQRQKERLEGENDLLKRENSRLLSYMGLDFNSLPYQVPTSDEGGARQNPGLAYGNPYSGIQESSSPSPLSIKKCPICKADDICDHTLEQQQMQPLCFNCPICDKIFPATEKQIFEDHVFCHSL
UniProt P00915: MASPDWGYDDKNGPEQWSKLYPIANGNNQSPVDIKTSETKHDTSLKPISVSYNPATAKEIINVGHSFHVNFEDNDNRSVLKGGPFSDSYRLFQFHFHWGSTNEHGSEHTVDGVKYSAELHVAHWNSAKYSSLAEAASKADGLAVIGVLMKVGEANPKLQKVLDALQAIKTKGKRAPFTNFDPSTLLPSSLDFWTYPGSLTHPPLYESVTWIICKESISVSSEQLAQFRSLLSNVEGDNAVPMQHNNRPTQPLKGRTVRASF
UniProt Q3KRA6: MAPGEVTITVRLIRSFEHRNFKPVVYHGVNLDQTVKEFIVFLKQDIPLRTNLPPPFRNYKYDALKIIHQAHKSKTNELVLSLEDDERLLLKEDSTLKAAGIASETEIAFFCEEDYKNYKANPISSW
UniProt Q14012: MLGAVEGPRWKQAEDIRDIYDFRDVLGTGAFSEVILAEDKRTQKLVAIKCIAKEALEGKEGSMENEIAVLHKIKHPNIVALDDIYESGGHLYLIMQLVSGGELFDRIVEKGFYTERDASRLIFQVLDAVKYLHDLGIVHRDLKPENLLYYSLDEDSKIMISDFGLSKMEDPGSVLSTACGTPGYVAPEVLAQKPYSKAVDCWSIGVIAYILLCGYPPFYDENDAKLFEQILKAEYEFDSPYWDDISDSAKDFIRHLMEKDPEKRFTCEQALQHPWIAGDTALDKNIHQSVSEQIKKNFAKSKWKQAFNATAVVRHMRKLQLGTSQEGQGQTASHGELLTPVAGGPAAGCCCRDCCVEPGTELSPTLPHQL
UniProt Q96B23: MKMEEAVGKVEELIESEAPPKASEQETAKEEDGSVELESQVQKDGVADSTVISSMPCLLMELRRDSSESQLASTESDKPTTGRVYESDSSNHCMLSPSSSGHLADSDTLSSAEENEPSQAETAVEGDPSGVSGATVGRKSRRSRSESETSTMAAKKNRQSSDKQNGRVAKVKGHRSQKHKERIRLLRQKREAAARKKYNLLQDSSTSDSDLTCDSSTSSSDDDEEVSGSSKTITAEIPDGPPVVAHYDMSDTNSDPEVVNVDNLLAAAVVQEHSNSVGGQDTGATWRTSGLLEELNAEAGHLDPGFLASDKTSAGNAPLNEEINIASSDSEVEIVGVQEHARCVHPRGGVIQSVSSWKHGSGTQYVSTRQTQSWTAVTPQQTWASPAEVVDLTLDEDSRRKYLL
UniProt Q9BVC5: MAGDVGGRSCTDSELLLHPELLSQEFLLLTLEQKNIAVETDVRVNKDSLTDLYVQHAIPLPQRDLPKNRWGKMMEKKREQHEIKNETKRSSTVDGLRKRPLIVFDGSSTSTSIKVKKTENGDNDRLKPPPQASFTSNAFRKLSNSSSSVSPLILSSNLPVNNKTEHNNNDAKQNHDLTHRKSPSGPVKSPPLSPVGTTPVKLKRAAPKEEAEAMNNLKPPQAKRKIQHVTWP
UniProt Q9H3H3: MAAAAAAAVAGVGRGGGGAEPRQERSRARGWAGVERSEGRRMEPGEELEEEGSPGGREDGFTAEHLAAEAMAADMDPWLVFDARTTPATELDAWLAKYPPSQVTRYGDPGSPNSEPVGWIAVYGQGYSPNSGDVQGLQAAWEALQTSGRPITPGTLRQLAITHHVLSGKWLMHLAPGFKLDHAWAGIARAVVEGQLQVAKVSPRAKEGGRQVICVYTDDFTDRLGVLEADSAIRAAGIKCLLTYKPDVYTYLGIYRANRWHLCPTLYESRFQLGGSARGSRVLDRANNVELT
UniProt Q9H425: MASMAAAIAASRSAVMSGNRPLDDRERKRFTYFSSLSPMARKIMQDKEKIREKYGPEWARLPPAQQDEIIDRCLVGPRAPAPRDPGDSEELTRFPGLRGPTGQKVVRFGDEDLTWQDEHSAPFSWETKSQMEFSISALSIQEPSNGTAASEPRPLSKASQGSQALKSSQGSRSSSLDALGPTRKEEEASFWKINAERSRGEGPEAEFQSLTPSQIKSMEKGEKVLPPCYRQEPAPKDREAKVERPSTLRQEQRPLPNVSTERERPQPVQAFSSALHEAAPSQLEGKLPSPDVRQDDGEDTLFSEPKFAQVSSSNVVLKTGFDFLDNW
UniProt Q49AR2: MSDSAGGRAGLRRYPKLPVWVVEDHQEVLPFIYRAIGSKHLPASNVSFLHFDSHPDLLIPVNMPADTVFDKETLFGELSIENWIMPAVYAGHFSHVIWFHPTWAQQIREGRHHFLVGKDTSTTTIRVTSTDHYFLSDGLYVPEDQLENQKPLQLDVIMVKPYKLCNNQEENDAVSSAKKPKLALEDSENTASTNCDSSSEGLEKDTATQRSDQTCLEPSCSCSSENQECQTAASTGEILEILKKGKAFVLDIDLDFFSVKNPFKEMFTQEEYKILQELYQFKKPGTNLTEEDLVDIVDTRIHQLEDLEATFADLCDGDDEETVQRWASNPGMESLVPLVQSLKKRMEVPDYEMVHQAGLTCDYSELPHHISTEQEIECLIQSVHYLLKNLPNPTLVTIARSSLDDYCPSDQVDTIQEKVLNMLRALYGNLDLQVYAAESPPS
UniProt P04632: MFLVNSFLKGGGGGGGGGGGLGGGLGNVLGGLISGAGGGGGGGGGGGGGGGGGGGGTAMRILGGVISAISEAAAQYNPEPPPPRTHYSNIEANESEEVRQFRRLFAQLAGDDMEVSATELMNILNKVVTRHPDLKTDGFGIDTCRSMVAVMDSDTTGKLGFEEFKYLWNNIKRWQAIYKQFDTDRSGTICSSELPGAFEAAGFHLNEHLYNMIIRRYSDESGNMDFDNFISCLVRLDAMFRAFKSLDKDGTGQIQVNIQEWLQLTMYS
UniProt Q9Y6W3: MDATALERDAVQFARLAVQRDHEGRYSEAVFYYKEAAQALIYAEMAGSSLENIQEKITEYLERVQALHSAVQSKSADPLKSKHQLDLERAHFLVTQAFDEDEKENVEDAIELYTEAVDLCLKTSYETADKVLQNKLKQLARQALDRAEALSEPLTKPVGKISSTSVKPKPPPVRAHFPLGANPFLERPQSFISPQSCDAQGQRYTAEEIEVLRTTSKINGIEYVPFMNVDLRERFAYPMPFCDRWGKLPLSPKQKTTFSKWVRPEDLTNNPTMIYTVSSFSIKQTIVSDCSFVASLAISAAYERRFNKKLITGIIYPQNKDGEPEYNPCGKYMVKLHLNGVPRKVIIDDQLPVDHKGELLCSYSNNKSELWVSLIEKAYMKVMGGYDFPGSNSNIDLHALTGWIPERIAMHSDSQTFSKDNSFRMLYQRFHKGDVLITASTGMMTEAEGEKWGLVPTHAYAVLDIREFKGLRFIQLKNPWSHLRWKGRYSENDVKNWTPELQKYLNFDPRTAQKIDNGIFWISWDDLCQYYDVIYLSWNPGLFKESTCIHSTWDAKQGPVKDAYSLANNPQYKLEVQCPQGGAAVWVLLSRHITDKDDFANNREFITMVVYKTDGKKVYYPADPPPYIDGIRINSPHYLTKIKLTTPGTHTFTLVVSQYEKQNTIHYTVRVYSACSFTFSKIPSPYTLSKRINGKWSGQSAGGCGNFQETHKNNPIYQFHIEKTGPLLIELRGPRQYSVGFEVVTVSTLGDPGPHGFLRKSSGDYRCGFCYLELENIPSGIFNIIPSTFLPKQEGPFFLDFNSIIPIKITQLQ
UniProt Q8IXQ3: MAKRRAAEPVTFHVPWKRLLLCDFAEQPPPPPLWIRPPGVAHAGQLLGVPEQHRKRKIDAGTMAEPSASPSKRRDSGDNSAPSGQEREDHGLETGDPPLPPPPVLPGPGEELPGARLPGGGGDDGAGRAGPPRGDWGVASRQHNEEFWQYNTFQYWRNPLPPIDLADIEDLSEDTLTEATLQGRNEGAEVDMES
UniProt Q8N8R5: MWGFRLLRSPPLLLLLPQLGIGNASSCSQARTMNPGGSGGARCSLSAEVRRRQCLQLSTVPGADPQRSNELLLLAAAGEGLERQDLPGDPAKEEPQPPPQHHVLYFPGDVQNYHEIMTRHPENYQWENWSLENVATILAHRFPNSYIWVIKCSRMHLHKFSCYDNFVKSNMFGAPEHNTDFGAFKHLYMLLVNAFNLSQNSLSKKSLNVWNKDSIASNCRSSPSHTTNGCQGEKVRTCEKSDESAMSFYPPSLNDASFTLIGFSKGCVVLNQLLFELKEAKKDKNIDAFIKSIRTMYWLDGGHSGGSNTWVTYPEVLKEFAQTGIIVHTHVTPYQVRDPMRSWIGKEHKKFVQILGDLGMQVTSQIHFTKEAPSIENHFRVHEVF
UniProt Q9UFG5: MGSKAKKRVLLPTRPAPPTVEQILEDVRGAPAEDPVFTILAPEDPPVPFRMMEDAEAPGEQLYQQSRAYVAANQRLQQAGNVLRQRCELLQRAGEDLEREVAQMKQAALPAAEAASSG
UniProt P49069: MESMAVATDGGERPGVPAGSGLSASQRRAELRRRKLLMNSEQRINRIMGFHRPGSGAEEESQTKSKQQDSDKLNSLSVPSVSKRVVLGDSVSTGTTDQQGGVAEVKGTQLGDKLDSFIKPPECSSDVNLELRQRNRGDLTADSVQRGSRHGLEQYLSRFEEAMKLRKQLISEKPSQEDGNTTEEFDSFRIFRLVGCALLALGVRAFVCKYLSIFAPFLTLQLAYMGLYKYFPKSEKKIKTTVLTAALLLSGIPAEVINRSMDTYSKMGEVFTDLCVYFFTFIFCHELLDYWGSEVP
UniProt P07384: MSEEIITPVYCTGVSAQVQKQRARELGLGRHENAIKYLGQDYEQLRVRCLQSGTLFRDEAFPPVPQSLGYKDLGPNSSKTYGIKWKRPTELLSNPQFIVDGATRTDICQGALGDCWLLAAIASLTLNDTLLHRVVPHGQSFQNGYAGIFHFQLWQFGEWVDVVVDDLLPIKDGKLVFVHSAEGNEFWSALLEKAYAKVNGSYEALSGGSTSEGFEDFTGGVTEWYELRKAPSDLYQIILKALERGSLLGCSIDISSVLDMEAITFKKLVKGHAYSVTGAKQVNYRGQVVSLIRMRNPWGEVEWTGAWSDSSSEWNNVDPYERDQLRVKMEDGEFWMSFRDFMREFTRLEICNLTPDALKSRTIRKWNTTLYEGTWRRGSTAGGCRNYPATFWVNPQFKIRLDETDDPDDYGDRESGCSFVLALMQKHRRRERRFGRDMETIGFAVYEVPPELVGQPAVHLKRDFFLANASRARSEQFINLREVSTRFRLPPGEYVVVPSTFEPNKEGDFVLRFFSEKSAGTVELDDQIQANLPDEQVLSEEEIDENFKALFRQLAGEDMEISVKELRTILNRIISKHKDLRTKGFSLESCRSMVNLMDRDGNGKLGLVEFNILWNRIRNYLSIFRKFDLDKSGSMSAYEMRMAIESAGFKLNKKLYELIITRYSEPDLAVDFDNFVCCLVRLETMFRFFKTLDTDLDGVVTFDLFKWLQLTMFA
UniProt O14523: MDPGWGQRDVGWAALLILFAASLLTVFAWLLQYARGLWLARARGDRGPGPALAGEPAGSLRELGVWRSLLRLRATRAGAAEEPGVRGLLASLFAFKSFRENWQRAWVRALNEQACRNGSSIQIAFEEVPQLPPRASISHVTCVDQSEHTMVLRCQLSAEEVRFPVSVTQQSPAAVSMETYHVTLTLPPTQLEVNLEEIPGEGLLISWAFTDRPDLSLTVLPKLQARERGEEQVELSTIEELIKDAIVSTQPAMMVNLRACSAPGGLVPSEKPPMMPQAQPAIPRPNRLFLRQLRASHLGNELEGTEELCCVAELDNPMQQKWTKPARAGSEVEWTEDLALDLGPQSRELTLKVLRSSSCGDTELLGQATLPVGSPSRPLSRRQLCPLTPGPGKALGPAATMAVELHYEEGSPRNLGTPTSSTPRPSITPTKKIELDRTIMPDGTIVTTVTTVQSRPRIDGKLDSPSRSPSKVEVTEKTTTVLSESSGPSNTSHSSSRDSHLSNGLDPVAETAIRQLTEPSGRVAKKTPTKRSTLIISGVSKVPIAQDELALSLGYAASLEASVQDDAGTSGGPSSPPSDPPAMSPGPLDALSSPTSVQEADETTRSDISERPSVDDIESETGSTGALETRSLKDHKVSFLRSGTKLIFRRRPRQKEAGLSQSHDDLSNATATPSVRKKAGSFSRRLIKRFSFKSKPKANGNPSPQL
UniProt Q13901: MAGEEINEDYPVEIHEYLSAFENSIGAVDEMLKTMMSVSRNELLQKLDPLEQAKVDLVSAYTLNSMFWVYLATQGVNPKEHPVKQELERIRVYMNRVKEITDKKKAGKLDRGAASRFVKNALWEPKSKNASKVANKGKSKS

Experiments:
Assay in all cases: log2 fold change, soluble protein after heating vs DMSO (PISA); higher = thermal stabilisation; K562 lysate, 10 uM; active = over 0.2 and 3.5 SD of the protein, either way, in both replicates (recomputed)
ibrutinib = compound: C=CC(=O)N1CCC[C@@H](n2nc(-c3ccc(Oc4ccccc4)cc3)c3c(N)ncnc32)C1 [ibrutinib]
Procedure, shortened: (§1)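 K562 pellets were dounce-homogenised in PBS pH 7.4 with 1 mM MgCl2, and the crude extract at 1 mg/mL protein was treated with 10 μM compound for 30 min. Aliquots were heated for 3 min across 48°C-58°C, pooled, and brought to 0.5% NP-40 at 4°C; soluble protein was the supernatant after 21,000xg for 90 min. Soluble protein was quantified by TMTpro 16plex LC-MS/MS with channel sums equalised, and reported as log2 fold change in thermal stability against DMSO controls, with values from duplicates.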

[1] = compound: CC(=O)c1cnc2ccc(-c3cc(Cl)c(O)c(Cl)c3)nc2c1N[C@H]1CC[C@H](CN(C)C)CC1
Procedure, shortened: as §1

ralimetinib = compound: CC(C)(C)Cn1c(N)nc2ccc(-c3[nH]c(C(C)(C)C)nc3-c3ccc(F)cc3)nc21 [ralimetinib]
Procedure, shortened: as §1

[2] = compound: CC(C)(O)CC(=O)NCCn1ccc2ncnc(Nc3ccc(Oc4cccc(C(F)(F)F)c4)c(Cl)c3)c21
Procedure, shortened: as §1

[3] = compound: CC(C)C1=C2N=C(C=C(N2N=C1)NCC3=CC=CC=C3)NCCCCCCN
Procedure, shortened: as §1

[4] = compound: CC1=C(C(CC(=O)N1)C2=CC=C(C=C2)C(F)(F)F)C(=O)NC3=C(C=C4C(=C3)C=NN4)F
Procedure, shortened: as §1

[5] = compound: CC1=C(C2=C(C=C1)C(=O)C3=CC=CC=C3N2CCCN)C
Procedure, shortened: as §1

[6] = compound: CC1=C(C=C(C=C1)NC(=O)C2=CC(=CC=C2)C(C)(C)C#N)NC3=CC4=C(C=C3)N=CN(C4=O)C
Procedure, shortened: as §1

[7] = compound: CC1=C(C=C(C=C1)NC(=O)C2=CC(=CC=C2)N(C)C)NC(=O)C3=CC=C(C=C3)O
Procedure, shortened: as §1

[8] = compound: CC1=CC=C(C=C1)SC2=C3C=C(SC3=CN=C2)C(=O)N
Procedure, shortened: as §1

Measured: log2 fold change

CALCOCO2 isoform 4 (UniProt Q13137)
inactive: ibrutinib -0.002 | [1] 0.018 | ralimetinib -0.012 | [2] -0.014 | [3] -0.026 | [4] -0.03 | [5] -0.005 | [6] 0.015 | [7] 0.023 | [8] 0.027

CA2 (UniProt P00918)
inactive: ibrutinib 0.021 | [1] -0.028 | ralimetinib -0.033 | [2] 0.08 | [3] 0.034 | [4] 0 | [5] -0.242 | [6] -0.006 | [7] -0.022 | [8] 0.001

CA1 (UniProt P00915)
inactive: ibrutinib 0.015 | [1] -0.023 | ralimetinib 0.001 | [2] -0.035 | [3] 0.003 | [4] -0.004 | [5] 0.001 | [6] 0.023 | [7] 0.01 | [8] -0.001

C2orf76 (UniProt Q3KRA6)
inactive: ibrutinib 0.015 | [1] -0.019 | ralimetinib 0.108 | [2] -0.017 | [3] -0.026 | [4] 0.061 | [5] -0.014 | [6] 0.019 | [7] -0.008 | [8] -0.013

CAMK1 (UniProt Q14012)
inactive: ibrutinib 0.017 | [1] 0.009 | ralimetinib 0.004 | [2] -0.144 | [3] -0.017 | [4] -0.034 | [5] -0.003 | [6] 0.016 | [7] -0.027 | [8] 0.008

C18orf25 (UniProt Q96B23)
inactive: ibrutinib 0.114 | [1] 0.026 | ralimetinib 0 | [3] -0.038 | [4] 0.073 | [5] -0.008 | [6] 0.04 | [7] -0.091 | [8] -0.065
active: [2] -0.276

C2orf49 (UniProt Q9BVC5)
inactive: ibrutinib 0.038 | [1] -0.011 | ralimetinib -0.013 | [2] -0.009 | [3] 0.014 | [4] 0.034 | [5] 0.005 | [6] 0.002 | [7] 0.011 | [8] 0.028

BUB1 (UniProt O43683)
inactive: ibrutinib -0.051 | [1] 0.029 | ralimetinib 0.116 | [2] -0.053 | [3] 0.042 | [4] -0.013 | [5] -0.052 | [6] 0.017 | [7] 0.052 | [8] -0.039

C1orf122 (UniProt Q6ZSJ8)
inactive: ibrutinib -0.014 | [1] -0.039 | ralimetinib 0.026 | [2] -0.049 | [3] -0.01 | [4] -0.034 | [5] -0.056 | [6] 0.141 | [7] 0 | [8] -0.008

C9orf64 (UniProt Q5T6V5)
inactive: ibrutinib 0.005 | [1] 0.007 | ralimetinib 0.014 | [2] -0.014 | [3] -0.014 | [4] -0.02 | [5] 0.009 | [6] 0.037 | [7] -0.001 | [8] -0.002

C11orf54 (UniProt Q9H0W9)
inactive: ibrutinib -0.007 | [1] -0.013 | ralimetinib -0.004 | [2] -0.006 | [3] -0.005 | [4] -0.007 | [5] 0.01 | [6] 0.015 | [7] -0.004 | [8] 0.003

C11orf68 isoform 3 (UniProt Q9H3H3)
inactive: ibrutinib -0.02 | [1] 0.017 | ralimetinib 0.01 | [2] -0.029 | [3] -0.025 | [4] -0.023 | [5] 0.004 | [6] 0 | [7] 0.018 | [8] -0.004

C1orf198 (UniProt Q9H425)
inactive: ibrutinib -0.018 | [1] 0.004 | ralimetinib 0.031 | [2] -0.015 | [3] 0.007 | [4] -0.166 | [5] -0.004 | [6] 0.01 | [7] -0.132 | [8] -0.067

C8orf33 isoform 2 (UniProt Q9H7E9)
inactive: ibrutinib 0.036 | [1] 0 | ralimetinib 0.064 | [2] 0.022 | [3] 0.044 | [4] -0.038 | [5] 0.007 | [6] -0.037 | [7] -0.016 | [8] 0.005

C5orf22 (UniProt Q49AR2)
inactive: ibrutinib 0.004 | [1] 0.009 | ralimetinib 0.012 | [2] -0.006 | [3] -0.005 | [4] -0.022 | [5] -0.009 | [6] 0.002 | [7] 0.002 | [8] -0.006

CALR (UniProt P27797)
inactive: ibrutinib -0.021 | [1] 0.004 | ralimetinib -0.02 | [2] 0 | [3] -0.017 | [4] -0.004 | [5] 0.015 | [6] -0.046 | [7] -0.007 | [8] -0.001

C3orf38 (UniProt Q5JPI3)
inactive: ibrutinib 0.049 | [1] 0.067 | ralimetinib 0.009 | [2] -0.112 | [3] -0.002 | [4] -0.031 | [5] 0.002 | [6] 0.022 | [7] -0.04 | [8] 0.101

CALU isoform 3 (UniProt O43852)
inactive: ibrutinib -0.04 | [1] -0.006 | ralimetinib -0.03 | [2] -0.006 | [3] 0.003 | [4] -0.013 | [5] -0.014 | [6] 0.01 | [7] 0.01 | [8] -0.021

CAPNS1 (UniProt P04632)
inactive: ibrutinib 0.076 | [1] 0.002 | ralimetinib 0.035 | [2] -0.007 | [3] -0.015 | [4] 0.006 | [5] 0.053 | [6] 0 | [7] -0.025 | [8] 0.01

C6orf89 isoform 2 (UniProt Q6UWU4)
inactive: ibrutinib 0.003 | [1] 0.063 | ralimetinib 0.012 | [2] -0.024 | [3] -0.047 | [4] 0.069 | [5] 0.026 | [6] -0.041 | [7] -0.002 | [8] 0.082

CAPN7 (UniProt Q9Y6W3)
inactive: ibrutinib 0.022 | [1] -0.004 | ralimetinib 0.021 | [2] -0.002 | [3] 0.01 | [4] 0.004 | [5] -0.006 | [6] 0.039 | [7] 0.049 | [8] -0.029

C9orf40 (UniProt Q8IXQ3)
inactive: ibrutinib 0.098 | [1] 0.001 | ralimetinib -0.025 | [2] -0.006 | [3] -0.048 | [4] -0.123 | [5] -0.047 | [6] 0.004 | [7] -0.023 | [8] -0.045

C1GALT1C1 (UniProt Q96EU7)
inactive: ibrutinib 0.009 | [1] -0.166 | ralimetinib -0.023 | [2] -0.018 | [3] -0.011 | [4] -0.07 | [5] 0.013 | [6] 0.023 | [7] 0.005 | [8] -0.047

C2orf69 (UniProt Q8N8R5)
inactive: ibrutinib 0.002 | [1] 0.004 | ralimetinib 0.077 | [2] -0.031 | [3] -0.017 | [4] -0.09 | [5] 0.006 | [6] -0.007 | [7] 0.064 | [8] -0.048

C19orf25 (UniProt Q9UFG5)
inactive: ibrutinib 0.158 | [1] -0.114 | ralimetinib -0.033 | [2] -0.143 | [3] -0.065 | [4] -0.019 | [5] -0.122 | [6] -0.009 | [7] 0.067 | [8] 0.003

2 neighbouring records from above, for reference:
BUB1 (UniProt O43683)
inactive: ibrutinib -0.051 | [1] 0.029 | ralimetinib 0.116 | [2] -0.053 | [3] 0.042 | [4] -0.013 | [5] -0.052 | [6] 0.017 | [7] 0.052 | [8] -0.039

C1orf122 (UniProt Q6ZSJ8)
inactive: ibrutinib -0.014 | [1] -0.039 | ralimetinib 0.026 | [2] -0.049 | [3] -0.01 | [4] -0.034 | [5] -0.056 | [6] 0.141 | [7] 0 | [8] -0.008

Continued:

CAMLG (UniProt P49069)
inactive: ibrutinib -0.019 | [1] -0.003 | ralimetinib 0.084 | [2] -0.023 | [3] 0.009 | [4] -0.068 | [5] -0.024 | [6] -0.028 | [7] 0.004 | [8] -0.012

CAPN1 (UniProt P07384)
inactive: ibrutinib 0.01 | [1] -0.002 | ralimetinib 0.023 | [2] -0.005 | [3] 0.011 | [4] 0.007 | [5] -0.027 | [6] 0.02 | [7] -0.018 | [8] -0.018

C2CD2L (UniProt O14523)
inactive: ibrutinib 0.04 | [1] 0.013 | ralimetinib 0.017 | [2] -0.032 | [3] -0.007 | [4] -0.041 | [5] -0.155 | [6] 0.008 | [7] 0.011 | [8] -0.069

C1D (UniProt Q13901)
inactive: ibrutinib -0.077 | [1] 0.011 | ralimetinib 0.002 | [2] -0.027 | [3] -0.021 | [4] -0.055 | [5] 0 | [6] -0.025 | [7] -0.037 | [8] 0.011
